These are yes or no findings as the source states them, for the method shown. Some results given as binding are weak or reduced against the parent protein; the word gives no strength. Sequences can lack the tags named with a protein.
What was measured:
[1] = target: Leader-VHH(aALFA)-G4S-CD8h-BBz-CAR (Human); experiment: flow cytometry, Jurkat T cells expressing the modular CAR armed with soluble adaptor, stained with adaptor-specific antibody
[2] = target: Leader-VHH(aALFA)-G4S-CD8h-BBz-CAR (Human); experiment: flow cytometry, primary human T cells expressing the modular CAR armed with 100 nM soluble adaptor, stained with adaptor-specific antibody
[3] = target: Leader-VHH(aALFA)-G4S-CD8h-BBz-CAR (Human); experiment: flow cytometry, Jurkat cells expressing the modular CAR armed with 1 or 10 nM soluble adaptor, detected with anti-idiotype antibody

binding [1]: binds | binding [2]: binds | binding [3]: binds
B1: Leader2-ALFA-VH/VL(aCLDN6)-His (scFv)
scFv: PSRLEEELRRRLTEPGGGGSGGGGSEVQLQQSGPELVKPGASMKISCKASGYSFTGYTMNWVKQSHGKNLEWIGLINPYNGGTIYNQKFKGKATLTVDKSSSTAYMELLSLTSEDSAVYYCARDYGFVLDYWGQGTTLTVSSGGGGSGGGGSGGGGSDIVLTQSPSIMSVSPGEKVTITCSASSSVSYMHWFQQKPGTSPKLSIYSTSNLASGVPARFSGRGSGTSYSLTISRVAAEDAATYYCQQRSNYPPWTFGGGTKLEIKRSDPAGGSHHHHHH

From patent US20250339533A1
